Reference: publication PMC9086926 (RSC Advances, 2018)

How the values were obtained:
[1] = Absorptive permeability across traditional 21 day Caco-2 cell model; details: human
[2] = Absorptive permeability across 7 day fast model; details: human, Caco-2
[3] = cited from earlier work

CC(C)NCC(O)COc1ccc(CC(N)=O)cc1 (centres unmarked) [Atenolol]
Papp A→B at 25 μM [1]: 3.41 ± 0.23 ×10⁻⁶ cm/s | Papp A→B at 25 μM [2]: 4.36 ± 0.68 ×10⁻⁶ cm/s

COc1ccc2cc([C@H](C)C(=O)O)ccc2c1 [Naproxen]
FA (human absorption fraction) [3]: 99% | Papp A→B at 25 μM [1]: 15 ± 2.37 ×10⁻⁶ cm/s | Papp A→B at 25 μM [2]: 14.7 ± 0.81 ×10⁻⁶ cm/s
